# According to PMC12592408:
# No constants are given. Whether binding was seen depends on the method and setting. Binding seen in cells or lysates may run through a third protein.
# Key:
# [1] = target: T1, PipB2 (SPI-2 effector) (S. Typhimurium) (UniProt Q8ZMM8); assay: co-IP; HEK293T transfected with CIC-Myc (with RAB7-mCherry in Fig. 5f; CIC-deficient cells in Supplementary Fig. 11c), infected with S. Typhimurium expressing the tagged effector (MOI 20, 16 h); lysis in 20 mM Tris-HCl, 150 mM NaCl, 1 mM EDTA, 1% NP-40; immunoprecipitation with anti-HA agarose, 3 h, 4 °C; western blot
# T1 sequence: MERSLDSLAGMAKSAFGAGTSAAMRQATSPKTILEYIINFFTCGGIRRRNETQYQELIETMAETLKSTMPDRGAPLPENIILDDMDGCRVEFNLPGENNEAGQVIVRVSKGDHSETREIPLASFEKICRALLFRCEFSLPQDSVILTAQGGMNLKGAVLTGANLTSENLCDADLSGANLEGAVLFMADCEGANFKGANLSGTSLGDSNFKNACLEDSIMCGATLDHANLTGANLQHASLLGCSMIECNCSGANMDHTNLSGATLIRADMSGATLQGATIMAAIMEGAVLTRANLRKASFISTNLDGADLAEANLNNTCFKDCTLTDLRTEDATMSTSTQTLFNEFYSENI
# [2] = target: T2, SopD2 (SPI-2 effector) (S. Typhimurium) (UniProt Q8ZQC8); assay: as above
# T2 sequence: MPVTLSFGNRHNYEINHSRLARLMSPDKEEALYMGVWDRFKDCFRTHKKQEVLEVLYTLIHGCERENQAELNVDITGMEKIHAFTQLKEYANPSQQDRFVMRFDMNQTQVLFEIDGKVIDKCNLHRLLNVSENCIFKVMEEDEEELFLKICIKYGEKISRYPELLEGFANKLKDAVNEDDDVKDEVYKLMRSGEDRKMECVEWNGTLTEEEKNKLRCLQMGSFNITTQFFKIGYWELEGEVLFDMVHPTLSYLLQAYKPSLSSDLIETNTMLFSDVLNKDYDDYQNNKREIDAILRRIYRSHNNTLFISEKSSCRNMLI
substance,measurement,setting,value
"Myc-tagged CIC (mitochondrial citrate carrier, tricarboxylate carrier, encoded by SLC25A1), transiently expressed (from UniProt P53007 14-311)",binding,[1],no binding
same,binding,[2],no binding
